Measured values taken from patent US20030100494A1, “Nerve protective drugs” (priority 1999, published 2003).
At least one structure is not confirmed: it was looked up by name or label, or the drawing left a doubt.

Test system: Rat hippocampal nerve cells
Test: ionomycin-induced death of cultured rat hippocampal nerve cells (WST-8 cell survival rate)
Settings: each 0.1 μM; 3 μM ionomycin; FIGS. 6a and 6b

CC(C)(N)C(=O)N[C@H](COCc1ccccc1)C(=O)N1CCC2(CC1)CN(S(C)(=O)=O)c1ccccc12 [MK-0677, 2-Amino-N-[(R)-2-(benzyloxy)-1-[[1-(methylsulfonyl)spiro[indoline-3,4′-piperidin]-1′-yl]carbonyl]ethyl]-2-methylpropionamidomonomethanesulfonate, reference compound]
inhibition of cell death induced by ionomycin at a single concentration: clear action of inhibiting cell death
